Earlier results on 1 compound are cited in patent US20130028937A1 (LABORATORIOS DEL DR. ESTEVE, S.A., priority 2009, published 2013).

The conditions of the data set: cited from earlier work.

As to `Cc1ccc(-c2cc(C(F)(F)F)nn2-c2ccc(S(N)(=O)=O)cc2)cc1` [Celecoxib, 4-[5-(4-methylphenyl)-3-(trifluoromethyl)pyrazol-1-yl]benzenesulfonamide], the solubility in water entry was “only slightly soluble”.
